Data published in patent US10617736B2, “Method for modulating insulin-independent glucose transport using teneurin C-terminal associated peptide (TCAP)” (priority 2014, dated 2020).
Not every detail of the peptide structures is certain; ends, links or a residue may be inferred. Ends that are not written are not given here.

Columns and labels:
[1] = test system: mHypoE-38 neurons; assay: 3H-2-deoxyglucose uptake in mHypoE-38 hypothalamic neurons; format: cell-based, mouse
Experimental: The effect of TCAP-1 on glucose uptake in brain cells was examined in immortalized […] hypothalamic cells. Immortalized mHypoE-38 hypothalamic embryonic mouse neurons (gift from Dr. Denise Belsham, University of Toronto) were grown in Dulbecco's Modified Eagle Medium (DMEM) containing 4500 mg/L D-glucose, L-glutamine, and 25 mM HEPES buffer, without sodium pyruvate or phenol red (Gibco, Cat. No. 21063029), supplemented with 5% heat-inactivated fetal bovine serum (FBS), 100 U/ml penicillin and 100 μg/ml streptomycin. Cells were maintained at 60-70% confluency at 37° C. in a humidified CO2 incubator. To passage, cells were washed once in sterile PBS, trypsinized and seeded at a density of 100,000 cells per 3.5 cm plate and allowed to grow for 2-3 days. 24 hours prior to experimentation, medium was changed. mHypoE-38 hypothalamic cells were grown in 6-well tissue culture dishes (Corning Incorporated, Cat. No. 3516) at a seeding density of200 000 cells/9.5 cm^2 well in a 37° C. normoxic incubator. Cultures were grown for 36 hours to 85% confluence prior to experimentation. At day 3 post-plating, cells were washed twice with Locke's buffer (154 mM NaCl, 5.6 mM KCl, 2.3 mM CaCl2, 3.6 mM NaHCO3, 5 mM HEPES) without serum and glucose. The culture was incubated in the Locke's buffer for 1 hour at 37° C. followed by exposure to 100 nM insulin, 100 nM TCAP-1, 100 nM SC-TCAP-1, or saline. KCl (40 mM) and […] (0.5 μCi/ml) were added to culture 5 minutes before termination of treatment exposure. Uptake of ^3H-2-deoxyglucose was stopped immediately after 5 minutes with three washes of ice-cold 0.9% NaCl solution. Parallel experiments with 5 μM of cytochalasin B were performed to ensure that glucose uptake was of transporter-inhibitable transport. The cells were digested with 1 ml of 0.05 N NaOH at 0, 15, 30, 45, 60, 90 and 120 minutes after treatment. Cell lysates were used for determination of radioactivity by a beta liquid scintillation counter. Experiments were repeated three times with 3 wells pear condition per replication. […] hypothalamic cells were cultured as above and treated with 100 nM insulin, 100 nM TCAP-1 or saline, exposed to 5.6 mM or 40 mM KCl and 0.5 μCi/well 3H-2-deoxy glucose, and subsequently lysed with 50 mM NaOH. Radioactivity in cell lysates was counted using a liquid scintillation counter.

[2] = test system: mHypoE-38 neurons; assay: Intracellular pyruvate in mHypoE-38 neurons; format: cell-based, mouse; details: 100 nM, 30 minutes (vehicle 0.706±0.050)
[3] = test system: Wistar rats; assay: Liver and gastrocnemius muscle glycogen content (colorimetric glycogen assay); format: in vivo, rat; details: for average muscle glycogen level: gastrocnemius muscle
[4] = test system: AMPK; assay: AMPK phosphorylation western blot in mHypoE-38 neurons; format: cell-based, mouse; details: 1 nM treatment for 1 minute
[5] = test system: male Wistar rats; assay: Blood/plasma glucose after single SC TCAP-1 injection in normal Wistar rats; format: in vivo, Rattus norvegicus; details: for blood glucose relative to vehicle: week 2 (FIG. 2A); for terminal blood glucose relative to vehicle: week 2 (FIG. 2B)

QQLLGTGRVQGYDGYFVLSVEQYLELSDSANNIHFMRQSEI-NH2 (C-terminus assumed) [TCAP-1]
3H-2-deoxyglucose uptake ([1]; 100 nM, 5.6 mM KCl (low KCl)): 246.261±11.387% | 3H-2-deoxyglucose uptake ([1]; 100 nM, 40 mM KCl exposure): 300.601±20.753% | 3H-2-deoxyglucose uptake value relative to baseline ([1]; 100 nM, 40 mM KCl, 60 minutes): 150.553±3.609% | 3H-2-deoxyglucose uptake relative to baseline ([1]; 100 nM, 40 mM KCl, 90 minutes): 137.511±10.893% | 3H-2-deoxyglucose transport ([1]; 100 nM, 40 mM KCl, after 30 minutes): initial decrease | 3HDG uptake in whole cells over time ([1]; Hypo-E38 cells (FIG. 11C-E)): significant uptake at 60 mm | 3HDG uptake in potassium-free media ([1]; Hypo-E38 cells, potassium-free media (FIG. 11F, G)): had no effect | 3H-2-deoxyglucose uptake ([1]; cells pretreated with MEK inhibitor (U0126) for 1 hour, 40 mM KCl): 67.770±1.151 | 3H-2-deoxyglucose uptake ([1]; non-MEK-inhibited cells, 40 mM KCl): 124.809±26.063 | intracellular pyruvate level [2]: 0.536±0.012 nmole/well | glycogen content in muscle and liver vs control rats ([3]; 1 and 10 nmole/kg): no significant change | average muscle glycogen level ([3]; 1 nmole/kg, second week): 0.02634±0.003573 μg/μg protein | average muscle glycogen level ([3]; 10 nmole/kg, second week): 0.03854±0.01146 μg/μg protein | average liver glycogen level ([3]; liver, 1 nmole/kg, second week): 0.02318±0.0001932 μg/μg protein | AMPK phosphorylation [4]: enhanced | blood glucose relative to vehicle ([5]; first experiment, 1 nmole/kg): significant decrease in blood glucose relative to vehicle | blood glucose relative to vehicle ([5]; first experiment, 10 nmole/kg): significant decrease in blood glucose levels relative to vehicle | blood glucose, hourly results ([5]; first experiment, within 4 hours of administration): not significantly affected | decrease in blood glucose levels ([5]; first in vivo study, single dose 1 and 10 nmole/kg, one week after administration): ~20% | decrease in plasma glucose levels ([5]; rats, one week after administration): 20-30% | terminal blood glucose relative to vehicle ([5]; second experiment, 1 nmole/kg): no significant change | terminal blood glucose relative to vehicle ([5]; second experiment, 10 nmole/kg): significant decrease in blood glucose levels compared to vehicle | daily glucose levels ([5]; second experiment, during week 1): no significant changes | decrease in blood glucose compared with vehicle ([5]; second in vivo study, one week after the initial injection): ~20% | reduction of plasma glucose levels ([5]; single SC injection, both 1 nmole and 10 nmols/kg, one week after injection (FIG. 3A)): about 40%
